The nature of the data set: general procedure: solution-phase peptide synthesis; pentafluorophenyl ester (Tub-PFP), DIPEA.

Under “coupling step”, “(18S,59S)-18-((benzyloxy)carbonyl)-59-((S)-2-(4-(2,5-dioxo-2,5-dihydro-1H-pyrrol-1-yl)butanamido)propanamido)-3,16,21,37,53,60,63,66,69-nonaoxo-1-phenyl-2,25,28,31,34,41,44,47,50-nonaoxa-17,22,38,54,61,64,67,70-octaazadoheptacontan-72-oic acid” registered a step yield of 79%.

Take “(18S,25S)-21,22-bis(3-(2,5-dioxo-2,5-dihydro-1H-pyrrol-1-yl)propanamido)-4,7,10,13,17,20,23,26,30,33,36,39-dodecaoxo-18,25-bis(29-oxo-2,5,8,11,14,17,20,23,26-nonaoxa-30-azatetratriacontan-34-yl)-3,6,9,12,16,19,24,27,31,34,37,40-dodecaazadotetra”: the step yield (late stage modification step) came to 82% yield.
